These are yes or no findings as the source states them, for the method shown. In cells and extracts the contact can be indirect. Some binding calls cover weakened binding; strength is not graded here. Tags and fused reporters may be left off the sequences shown.

Amino acid sequences for entries named in this document (tags omitted).
UniProt Q15388: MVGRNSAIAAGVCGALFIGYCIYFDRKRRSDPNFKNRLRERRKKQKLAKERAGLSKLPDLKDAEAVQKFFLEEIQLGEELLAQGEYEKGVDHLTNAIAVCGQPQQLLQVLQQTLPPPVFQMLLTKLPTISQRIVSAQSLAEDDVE

The target of this assay is T1, ANT3-Flag (human) (UniProt P12236).
T1 sequence: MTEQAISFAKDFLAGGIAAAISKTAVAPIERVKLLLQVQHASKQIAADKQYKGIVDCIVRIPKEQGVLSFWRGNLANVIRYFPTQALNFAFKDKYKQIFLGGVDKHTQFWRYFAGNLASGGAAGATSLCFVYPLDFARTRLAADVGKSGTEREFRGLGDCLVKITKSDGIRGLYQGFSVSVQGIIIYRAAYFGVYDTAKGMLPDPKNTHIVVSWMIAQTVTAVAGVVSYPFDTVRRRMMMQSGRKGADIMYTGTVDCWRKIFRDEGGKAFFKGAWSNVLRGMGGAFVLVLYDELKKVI
The experiment in a line: co-IP; HEK293T cells transfected with ANT3-Flag, Timm10-HA / Timm22-HA / Tomm20-HA, or both; lysates immunoprecipitated with anti-Flag; immunoblot with anti-HA and anti-Flag; lysis in NETN (100 mM NaCl, 20 mM Tris-HCl, 0.5 mM EDTA, 0.5% NP40), protein A/G beads, 4°C overnight. In general terms: A western blot detects proteins with antibodies after separation by electrophoresis.

As for Tomm20-HA (from UniProt Q15388 1-145), the binding entry is reported as “binds”.

B1: Timm22-HA (protein, UniProt Q9Y584 1-194)
chain: MAAAAPNAGGSAPETAGSAEAPLQYSLLLQYLVGDKRQPRLLEPGSLGGIPSPAKSEEQKMIEKAMESCAFKAALACVGGFVLGGAFGVFTAGIDTNVGFDPKDPYRTPTAKEVLKDMGQRGMSYAKNFAIVGAMFSCTECLIESYRGTSDWKNSVISGCITGGAIGFRAGLKAGAIGCGGFAAFSAAIDYYLR
In the case of B1, the binding result is listed as “binds”.

The values are drawn from paper PMC11667807.
